# Percent effect of library compounds

Chains of the proteins cited; added tags and fusions are not shown. Residues count along the entry.
UniProt Q4DA54, 1-478: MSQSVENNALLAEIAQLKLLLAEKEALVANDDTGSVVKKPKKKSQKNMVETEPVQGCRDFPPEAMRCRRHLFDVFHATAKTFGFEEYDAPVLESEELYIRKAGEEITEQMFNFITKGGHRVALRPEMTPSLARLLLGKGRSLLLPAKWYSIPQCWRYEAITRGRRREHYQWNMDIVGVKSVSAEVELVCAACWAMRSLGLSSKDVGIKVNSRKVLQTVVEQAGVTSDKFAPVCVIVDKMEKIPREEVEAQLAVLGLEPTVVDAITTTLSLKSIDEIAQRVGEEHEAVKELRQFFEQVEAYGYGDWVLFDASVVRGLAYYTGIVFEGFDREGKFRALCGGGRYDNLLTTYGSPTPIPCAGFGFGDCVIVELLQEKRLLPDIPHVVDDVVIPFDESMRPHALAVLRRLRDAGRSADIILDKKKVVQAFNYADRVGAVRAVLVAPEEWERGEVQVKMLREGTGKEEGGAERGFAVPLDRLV
UniProt P9WNZ1, whole entry: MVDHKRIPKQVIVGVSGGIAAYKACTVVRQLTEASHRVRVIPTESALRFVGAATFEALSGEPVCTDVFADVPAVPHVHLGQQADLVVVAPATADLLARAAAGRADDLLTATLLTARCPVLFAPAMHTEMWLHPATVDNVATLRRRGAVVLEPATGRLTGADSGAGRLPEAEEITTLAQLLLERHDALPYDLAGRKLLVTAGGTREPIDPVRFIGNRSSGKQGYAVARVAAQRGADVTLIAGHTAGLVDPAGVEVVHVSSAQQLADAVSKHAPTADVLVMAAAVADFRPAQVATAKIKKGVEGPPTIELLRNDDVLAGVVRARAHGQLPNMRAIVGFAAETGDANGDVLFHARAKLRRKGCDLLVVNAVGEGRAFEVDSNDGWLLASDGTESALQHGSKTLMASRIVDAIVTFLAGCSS

From ChEMBL document CHEMBL3988442, “University of Dundee, Small-Polar-MMV Screening Library” (2021).

Results are given as percent effect. The record does not define 0% and 100%; most values in the screen are far below 50% and negative numbers occur (in some assays of this library far below -100). Compounds were drawn at random from those tested, without regard to their results. A dash means the value is not listed here; it may have been measured.

TcHisRS: 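Histidine-tRNA ligase, Trypanosoma cruzi CL Brener (UniProt Q4DA54). Enzyme assay of histidyl-tRNA synthetase; the read-out is not stated. Tested at 30 µM. Higher reads as stronger inhibition (inferred: compounds with an IC50 in retests scored well above the rest). Of about 69,000 compounds tested this way, about 31 (0.045%) reached 50% or more in at least one test.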
CoaBC: 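Coenzyme A biosynthesis protein CoaBC, Mycobacterium tuberculosis (UniProt P9WNZ1). Enzyme assay of CoaBC with a phosphate dye (Biomol Green) read at 650 nm. Compounds at 30 µM. Direction is inferred from only a few compounds that gave an IC50; most scored high, so higher reads as stronger inhibition. Most strong results did not repeat in a second test. Size under these conditions: about 67,000 compounds, about 40 of them at 50% or above in at least one test.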

SMILES,TcHisRS,CoaBC
CCCn1nc(C)c(CNS(=O)(=O)NCc2ccccc2)c1C,-3.636,4.087
O=C(O)c1cccc(CC2CCN(c3ncccn3)CC2)c1,7.609,-3.271
CCOCC1c2c(ncn2C(C)C)CCN1C(=O)CC (stereo not shown),2.674,-4.167
O=C(NCCCn1cccn1)C1(c2ccccc2)CCOCC1,-0.8696,2.771
O=C(NCCn1cccn1)C1CCC(=O)N(CC2CCCCC2)C1 (stereo not shown),3.518,-2.051
Cc1ccc(-c2nc(CN3CCCCC3Cn3cncn3)no2)cc1 (stereo not shown),6.197,10.05
Cc1cc(-c2cnn(CCNC(=O)c3cnn(C)c3)c2C2CC2)on1,13.33,1.695
c1cnn(CC2CN(c3ncnc4sccc34)CCO2)c1 (stereo not shown),10.16,8.903
CN1C(=O)[C@H]2CC[C@@H]1CN(C(=O)Nc1ccccc1C(F)(F)F)C2,3.704,0.6135
CCc1nccn1-c1cncc(C2CCN(C(=O)COC)CC2)n1,-3.042,0.3708
CN(Cc1ccon1)c1nc(-c2ccccn2)nc2c1CCNCC2,8.911,-3.426
CN(C)C[C@@H]1CN(C(=O)c2cc(-c3ccccc3)n[nH]2)C[C@@H]1CO,6.03,-1.942
Cc1cc(C)c(C(=O)N2CCC3(CCCN(CC(C)(C)C)C3)C2)[nH]1 (stereo not shown),17.42,-3.865
CC(C)(C)c1nc(CN2CCCC(c3noc(C4CC4)n3)C2)no1 (stereo not shown),4.942,7.101
CCc1nc(CNC(=O)c2ccc(C(C)N3CCCCC3)o2)cc(=O)[nH]1 (stereo not shown),-1.093,11
Cc1cccc(COc2ccccc2C(=O)N2CCC(C(N)=O)CC2)c1,6.358,1.985
COc1ccc(OC)c(-n2cnnc2C)c1,2.174,11.49
O=c1c(-c2ccnc(N3CCC[C@H]3CO)n2)cnc2sccn12,7.91,1.566
Cc1cccc(N(C)Cc2nc3c(cnn3C)c(=O)[nH]2)c1C,4.04,0.9724
Cc1sc2nc(C(F)(F)F)nc(N3CCN(C)CC3)c2c1C,8.387,-0.7246
c1cnnc(NCC2CN(Cc3ccon3)CCO2)c1 (stereo not shown),1.153,3.636
O=C(NCCc1ccncc1)c1ccc(N2CCOCC2)cc1,5.366,-4.391
CCOc1cc(C(=O)N2CCCC(c3noc(CC)n3)C2)ccn1 (stereo not shown),9.249,2.682
Nc1nc2c(s1)C(c1c(F)cccc1Cl)CC(=O)N2 (stereo not shown),-3.727,-0.8861
Cc1cccc2c1cnn2CCCNC(=O)CCCC(=O)O,3.347,7.727
O=C(NCc1cccnc1)C1CN(c2cnc3ccccc3n2)CCN1 (stereo not shown),13.29,6.203
CCNC(=O)N1CCC(n2ccc(C(F)(F)F)n2)CC1,-1.84,-6.786
Oc1nnc(-c2cccs2)c2sc(N3CCCC3)nc12,5.366,2.133
CCC(C)(COc1ncccc1Cl)NCC(=O)NC1CCCCC1 (stereo not shown),0,0.1266
COCCN(Cc1cccnc1)S(=O)(=O)c1cc(C)ccc1F,5,-2.066
NC(=O)c1cnc2n1CCN(C(=O)c1ccc(-c3cc[nH]n3)cc1)C2,6.186,5.817
COc1ccccc1COCC(O)CN(C)c1ccc(C)cc1C (stereo not shown),2.618,-6.638
O=C1[C@H]2CN(Cc3nccs3)C[C@H]2CN1c1cncnc1,9.244,1.42
CC1N(CC2CC2)C(=O)COC12CCN(C(=O)c1cscn1)CC2 (stereo not shown),6.135,-
O[C@H]1[C@H](n2cc(-c3ccccc3)nn2)c2ccccc2C12CCNCC2,4.065,-54.43
COc1cccc(NC(=O)CN2CCN(S(C)(=O)=O)CC2)c1,-0.5181,-2.132
Cc1cccc(CN2CC[C@@H]3O[C@@H](C(=O)N4CCN(C)CC4)C[C@@H]32)n1,10.61,1.818
CNS(=O)(=O)c1cc(C(=O)N(C)Cc2sccc2C)c(C)o1,1.587,0.6198
Cn1c(C(F)(F)F)nn(CCNC(=O)Nc2ccccc2Cl)c1=O,3.061,-1.873
COc1ccc(C)cc1C(C)NCc1cnnn1C (stereo not shown),9.392,1.942
CC1=N[C@@]2(CC[C@@H]3CN(Cc4ccc(C)cc4)C[C@@H]32)C(=O)N1CC1CC1,5.288,7.294
Nc1ncncc1-c1noc([C@@H]2CCCN2Cc2cccnc2)n1,-2.174,16.56
NC(=O)C1CCN(C(=O)c2cccc(OCc3cscn3)c2)CC1,3.817,4.145
COCC(=O)N1CCc2nc(C(=O)Nc3cccnc3)sc2CC1,3.448,1.426
O=C(c1cncs1)N1CCC(Cc2cnc3[nH]ccc3c2)CC1,13.83,4.412
c1cnc(C2CCCN(Cc3ccsc3)C2)cn1 (stereo not shown),3.788,-1.314
COCCC(=O)N(CCC#N)c1ccc(C)c(C)c1,7.182,2.42
O=C(NCC1(Sc2ccccc2)CC1)c1ccc(=O)[nH]n1,11.88,6.068
Cc1c[nH]c(CN(C)C(=O)c2cccc(CCC(C)(C)O)c2)n1,2.905,1.339
Cc1nnc(CN(Cc2ccco2)Cc2cccc3c2OCO3)n1C,4.972,-0.8917
Cc1nnc(N2CCCC3(CN(Cc4nccs4)CCO3)C2)o1 (stereo not shown),7.895,-2.096
CCc1ccc(C(=O)N2CCN(CC(O)c3ccccc3)CC2)o1 (stereo not shown),3.509,2.041
N#CCCCN1CCCC1Cc1ccccc1 (stereo not shown),6.897,2.4
O=C(c1cn(-c2ccccc2Cl)nn1)N1CCCSCC1,-2.542,5.727
CCn1nnc2c1C(COC)CN(C(=O)Cc1ccccn1)C2 (stereo not shown),7.317,4.01
C[C@H](NC(=O)C1CCCC1)c1nc2cc(-c3ccc(F)cc3)ncn2n1,2.985,1.946
O=C1CC(c2ccc(O)cc2)c2c(c(C(=O)O)cn2-c2ccccc2)N1 (stereo not shown),2.97,1.09
CCCC1CN(CCOC)C(=O)c2cccnc2O1 (stereo not shown),3.371,0.7264
Cc1c(C(=O)NCCC(=O)N2CCOCC2)oc2c(C)cccc12,4.202,5.645
Cc1cnn(CC2CCCN2C(=O)c2cnc(-c3ccco3)s2)c1 (stereo not shown),4.298,5.093
COc1cc(C2Nc3cc(Cl)ccc3C3=NCCN32)cc(OC)c1OC (stereo not shown),5.993,4.833
COCc1ccccc1CNC(=O)CN1CCCC1c1noc(C)n1 (stereo not shown),4.706,0.2558
CC(O)CN1CCC(CN(C)CC(=O)NC(C)C)CC1 (stereo not shown),3.867,-3.571
Cc1cc(C(=O)NC(COCC(C)C)c2ccco2)no1 (stereo not shown),0.2907,0.5821
CCOc1ncccc1C(=O)N(C)C1CCN(c2ccccn2)CC1,8.455,4.7
CCc1nnsc1C(=O)N(C)Cc1ccc(Br)o1,5.056,-6.64
CC(C)c1nsc(N2CCC(OCCN3CCOCC3)CC2)n1,-3.659,-1.139
CCc1ccc(C(=O)NC2CCCN(c3ccn(C)n3)C2=O)o1 (stereo not shown),1.235,1.595

For reference, 8 entries once more:

SMILES,TcHisRS,CoaBC
CN(C)C[C@@H]1CN(C(=O)c2cc(-c3ccccc3)n[nH]2)C[C@@H]1CO,6.03,-1.942
O=C1CC(c2ccc(O)cc2)c2c(c(C(=O)O)cn2-c2ccccc2)N1 (stereo not shown),2.97,1.09
Cc1ccc(-c2nc(CN3CCCCC3Cn3cncn3)no2)cc1 (stereo not shown),6.197,10.05
CN(Cc1ccon1)c1nc(-c2ccccn2)nc2c1CCNCC2,8.911,-3.426
Cc1cc(-c2cnn(CCNC(=O)c3cnn(C)c3)c2C2CC2)on1,13.33,1.695
CC(C)(C)c1nc(CN2CCCC(c3noc(C4CC4)n3)C2)no1 (stereo not shown),4.942,7.101
CCNC(=O)N1CCC(n2ccc(C(F)(F)F)n2)CC1,-1.84,-6.786
CC1=N[C@@]2(CC[C@@H]3CN(Cc4ccc(C)cc4)C[C@@H]32)C(=O)N1CC1CC1,5.288,7.294